Sequences of proteins named here, by UniProt entry; tags and fusion partners are left off. A change or cut given only in a name is not applied to a line headed by its entry.
UniProt Q0ZGT2: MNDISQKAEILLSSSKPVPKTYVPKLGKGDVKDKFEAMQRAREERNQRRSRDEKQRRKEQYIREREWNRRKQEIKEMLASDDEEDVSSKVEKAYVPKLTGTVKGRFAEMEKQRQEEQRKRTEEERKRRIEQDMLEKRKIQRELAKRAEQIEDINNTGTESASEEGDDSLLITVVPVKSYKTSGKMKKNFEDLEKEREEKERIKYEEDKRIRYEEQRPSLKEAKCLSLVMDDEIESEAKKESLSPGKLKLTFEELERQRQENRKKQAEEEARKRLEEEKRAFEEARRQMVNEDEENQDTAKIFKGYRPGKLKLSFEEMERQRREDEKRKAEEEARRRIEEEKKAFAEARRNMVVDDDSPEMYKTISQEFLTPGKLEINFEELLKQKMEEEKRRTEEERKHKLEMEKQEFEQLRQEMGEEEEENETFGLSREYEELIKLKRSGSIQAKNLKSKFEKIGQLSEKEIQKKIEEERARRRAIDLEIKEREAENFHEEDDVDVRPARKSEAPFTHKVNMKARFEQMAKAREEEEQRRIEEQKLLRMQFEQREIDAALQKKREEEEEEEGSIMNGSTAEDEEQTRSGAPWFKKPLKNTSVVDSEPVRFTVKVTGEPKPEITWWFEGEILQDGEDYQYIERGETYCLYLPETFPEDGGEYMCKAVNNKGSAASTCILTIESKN

Results are given in words; binding and its absence hold for the method and conditions named. In cells and extracts the contact can be indirect. A result given as binding can be weak or reduced; the word gives no strength.
Each substance was assayed against His-tagged full-length human nexilin (human) (UniProt Q0ZGT2) (assay: pull-down; His-nexilin bound to Ni-NTA resin; GST-nexilin variants as bacterial lysate, 2 h, 4 °C, PD buffer (50 mM NaCl, 10 mM Tris/HCl pH 7.5, 0.1% Triton X-100) with 20 mM imidazole; GST blot; only the target purified).
For “GST-tagged human nexilin lacking exons 6–9 (from UniProt Q0ZGT2-1) (domain or fragment)”, the binding was “binds weakly”.
“GST-tagged human nexilin lacking exon 6 (from UniProt Q0ZGT2-1)” was tested, and the binding was “binds weakly”.
“GST-tagged human nexilin lacking exons 6–7 (from UniProt Q0ZGT2-1) (domain or fragment)” was tested, and the binding was “binds weakly”.
For “GST-tagged human nexilin lacking exon 3 (from UniProt Q0ZGT2-1)”, the binding was “no binding”.
With “GST-tagged human nexilin lacking exons 6–8 (from UniProt Q0ZGT2-1)” the binding was “binds weakly”.

The substances below were run against His-tagged full-length human nexilin (human) (UniProt Q0ZGT2) (assay: pull-down; His-nexilin bound to Ni-NTA; lysates of HEK-293 cells overexpressing Flag-tagged nexilin variants; Flag and actin blots; only the target purified).
In the case of “Flag-tagged human nexilin lacking exons 6–8 (from UniProt Q0ZGT2-1)”, the binding was “binds”.
With “Flag-tagged human nexilin lacking exon 6 (from UniProt Q0ZGT2-1)” the binding was “binds”.

Reference: PMC11640418
